Experimental data as given in article doi:10.1101/2025.04.30.651401.
No constants are given. Whether binding was seen depends on the method and setting. In cells and extracts the contact can be indirect. Some entries that bind do so weakly or less than the wild type. For some assays here: Where a sequence is shown, tags or fusion partners need not be part of it.

Assays:
[1] = target: T1, Follistatin-like protein 1 (FSTL1), Flag-tagged (UniProt Q12841); experiment: co-IP
T1 sequence: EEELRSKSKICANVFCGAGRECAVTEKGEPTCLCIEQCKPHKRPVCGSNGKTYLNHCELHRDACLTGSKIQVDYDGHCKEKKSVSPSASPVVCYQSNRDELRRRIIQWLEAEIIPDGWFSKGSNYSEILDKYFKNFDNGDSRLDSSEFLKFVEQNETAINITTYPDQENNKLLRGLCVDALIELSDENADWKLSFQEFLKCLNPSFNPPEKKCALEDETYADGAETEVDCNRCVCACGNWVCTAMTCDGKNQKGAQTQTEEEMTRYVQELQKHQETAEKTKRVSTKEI

[2] = target: T2, Follistatin-like protein 1 (FSTL1), endogenous (human (endogenous in HCC cells)) (UniProt Q12841); experiment: co-IP
T2 sequence: T1 sequence

B1: Programmed cell death 4 (PDCD4) (protein, UniProt Q53EL6 1-469)
chain: MDVENEQILNVNPADPDNLSDSLFSGDEENAGTEEIKNEINGNWISASSINEARINAKAKRRLRKNSSRDSGRGDSVSDSGSDALRSGLTVPTSPKGRLLDRRSRSGKGRGLPKKGGAGGKGVWGTPGQVYDVEEVDVKDPNYDDDQENCVYETVVLPLDERAFEKTLTPIIQEYFEHGDTNEVAEMLRDLNLGEMKSGVPVLAVSLALEGKASHREMTSKLLSDLCGTVMSTTDVEKSFDKLLKDLPELALDTPRAPQLVGQFIARAVGDGILCNTYIDSYKGTVDCVQARAALDKATVLLSMSKGGKRKDSVWGSGGGQQSVNHLVKEIDMLLKEYLLSGDISEAEHCLKELEVPHFHHELVYEAIIMVLESTGESTFKMILDLLKSLWKSSTITVDQMKRGYERIYNEIPDINLDVPHSYSVLERFVEECFQAGIISKQLRDLCPSRGRKRFVSEGDGGRLKPESY
[1]
  binding: binds
[2]
  binding: binds
